Percent effect of library compounds

Amino acid sequences for entries named in this document (tags omitted).
UniProt I6X8D2, whole entry: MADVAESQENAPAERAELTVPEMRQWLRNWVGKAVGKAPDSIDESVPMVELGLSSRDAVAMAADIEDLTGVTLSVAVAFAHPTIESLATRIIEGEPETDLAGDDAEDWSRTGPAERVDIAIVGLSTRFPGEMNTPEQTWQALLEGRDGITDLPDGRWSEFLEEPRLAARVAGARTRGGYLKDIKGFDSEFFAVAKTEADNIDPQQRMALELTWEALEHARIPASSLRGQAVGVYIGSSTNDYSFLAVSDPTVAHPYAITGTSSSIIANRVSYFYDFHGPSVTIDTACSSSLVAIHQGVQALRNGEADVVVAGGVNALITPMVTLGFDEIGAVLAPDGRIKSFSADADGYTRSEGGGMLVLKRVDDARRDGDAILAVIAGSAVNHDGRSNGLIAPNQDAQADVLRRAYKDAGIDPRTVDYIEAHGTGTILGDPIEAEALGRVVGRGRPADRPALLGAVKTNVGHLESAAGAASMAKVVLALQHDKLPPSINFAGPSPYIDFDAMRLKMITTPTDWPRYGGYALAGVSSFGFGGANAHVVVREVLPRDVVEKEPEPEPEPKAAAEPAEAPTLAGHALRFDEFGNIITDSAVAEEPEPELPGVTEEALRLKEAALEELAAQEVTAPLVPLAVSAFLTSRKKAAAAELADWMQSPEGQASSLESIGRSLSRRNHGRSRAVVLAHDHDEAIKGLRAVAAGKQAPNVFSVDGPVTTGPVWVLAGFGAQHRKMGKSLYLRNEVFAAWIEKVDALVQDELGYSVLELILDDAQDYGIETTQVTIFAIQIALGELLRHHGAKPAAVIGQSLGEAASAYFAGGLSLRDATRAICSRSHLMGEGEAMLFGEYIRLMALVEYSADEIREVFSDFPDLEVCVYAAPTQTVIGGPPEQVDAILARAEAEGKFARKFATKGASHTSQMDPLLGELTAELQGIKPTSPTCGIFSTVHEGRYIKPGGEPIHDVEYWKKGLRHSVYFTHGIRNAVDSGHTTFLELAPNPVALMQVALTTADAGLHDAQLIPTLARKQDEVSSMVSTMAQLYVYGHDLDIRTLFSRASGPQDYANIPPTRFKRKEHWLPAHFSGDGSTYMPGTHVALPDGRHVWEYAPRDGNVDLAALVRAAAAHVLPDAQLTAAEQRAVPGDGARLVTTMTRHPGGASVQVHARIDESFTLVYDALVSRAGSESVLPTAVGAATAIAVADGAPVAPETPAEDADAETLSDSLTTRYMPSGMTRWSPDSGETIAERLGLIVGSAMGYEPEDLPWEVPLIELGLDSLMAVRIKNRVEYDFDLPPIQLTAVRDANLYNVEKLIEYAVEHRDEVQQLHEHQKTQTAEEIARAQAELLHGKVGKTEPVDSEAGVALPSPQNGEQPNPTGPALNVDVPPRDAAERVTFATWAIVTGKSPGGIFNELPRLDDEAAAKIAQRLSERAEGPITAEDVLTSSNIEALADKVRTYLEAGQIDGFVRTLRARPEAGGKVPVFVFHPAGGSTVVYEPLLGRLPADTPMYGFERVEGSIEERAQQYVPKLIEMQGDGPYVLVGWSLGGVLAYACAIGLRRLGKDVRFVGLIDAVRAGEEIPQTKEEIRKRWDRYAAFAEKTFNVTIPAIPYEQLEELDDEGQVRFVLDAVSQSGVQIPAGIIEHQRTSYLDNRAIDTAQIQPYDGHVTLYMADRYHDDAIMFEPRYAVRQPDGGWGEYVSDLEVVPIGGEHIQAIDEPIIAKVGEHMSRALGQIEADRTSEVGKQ
UniProt P9WNZ1, whole entry: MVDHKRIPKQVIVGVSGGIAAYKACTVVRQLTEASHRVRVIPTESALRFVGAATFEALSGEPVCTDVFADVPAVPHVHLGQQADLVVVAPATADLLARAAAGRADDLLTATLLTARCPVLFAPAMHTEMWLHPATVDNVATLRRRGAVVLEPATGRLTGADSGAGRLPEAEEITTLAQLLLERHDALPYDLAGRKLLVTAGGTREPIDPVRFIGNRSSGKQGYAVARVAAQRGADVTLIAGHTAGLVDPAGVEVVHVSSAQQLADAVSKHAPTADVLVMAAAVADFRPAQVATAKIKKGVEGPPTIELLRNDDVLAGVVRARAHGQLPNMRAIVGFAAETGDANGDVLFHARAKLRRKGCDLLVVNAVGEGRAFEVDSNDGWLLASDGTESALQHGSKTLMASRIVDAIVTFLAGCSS
UniProt P9WPC5, whole entry: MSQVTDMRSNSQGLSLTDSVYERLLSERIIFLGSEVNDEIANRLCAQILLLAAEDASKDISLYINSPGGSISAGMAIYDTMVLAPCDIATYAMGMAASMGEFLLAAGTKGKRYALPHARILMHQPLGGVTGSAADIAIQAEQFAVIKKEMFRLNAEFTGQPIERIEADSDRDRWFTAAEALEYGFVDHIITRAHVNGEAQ
UniProt P9WPC3, whole entry partner: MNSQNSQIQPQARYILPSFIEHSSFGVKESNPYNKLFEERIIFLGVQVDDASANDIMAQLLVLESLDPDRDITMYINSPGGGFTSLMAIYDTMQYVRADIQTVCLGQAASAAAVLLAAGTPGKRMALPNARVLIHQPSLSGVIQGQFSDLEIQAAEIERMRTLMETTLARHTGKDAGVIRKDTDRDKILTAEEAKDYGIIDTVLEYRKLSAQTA
UniProt P9WFT3, whole entry: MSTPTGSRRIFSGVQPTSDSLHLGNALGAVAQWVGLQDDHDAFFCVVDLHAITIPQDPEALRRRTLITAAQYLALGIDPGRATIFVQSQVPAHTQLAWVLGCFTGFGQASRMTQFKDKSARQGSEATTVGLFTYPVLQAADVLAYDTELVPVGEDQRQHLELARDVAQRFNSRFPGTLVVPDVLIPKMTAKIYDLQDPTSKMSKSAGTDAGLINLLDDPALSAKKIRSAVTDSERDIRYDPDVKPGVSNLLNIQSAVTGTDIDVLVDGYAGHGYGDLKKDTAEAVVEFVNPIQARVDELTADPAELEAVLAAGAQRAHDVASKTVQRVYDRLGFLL

Pks13 thioesterase: 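Polyketide synthase Pks13, Mycobacterium tuberculosis (UniProt I6X8D2). Enzyme assay of the thioesterase domain of polyketide synthase 13; the read-out is not stated. Concentration: 30 µM. Higher reads as stronger inhibition (inferred from which compounds were picked for retests). About 67,000 compounds were tested under these conditions; 0.46% (about 300) showed 50% or more at least once.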
Toxoplasma: 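Assay of Toxoplasma gondii numbers, read through their beta-galactosidase reporter with a colour substrate. Compounds at 10 µM. The record gives no direction; the compounds picked for IC50 retests had high values, so higher reads as fewer parasites. Of about 67,000 compounds tested this way, about 260 (0.38%) reached 50% or more in at least one test.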
CoaBC: 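Enzyme assay of CoaBC with a phosphate dye (Biomol Green) read at 650 nm. Target: Coenzyme A biosynthesis protein CoaBC, Mycobacterium tuberculosis (UniProt P9WNZ1). Compounds at 30 µM. Higher reads as stronger inhibition, judged from the few compounds that gave an IC50. Most strong results did not repeat in a second test. About 67,000 compounds were tested under these conditions; 0.06% (about 40) showed 50% or more at least once.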
ClpP1P2: 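ClpP1P2, Mycobacterium tuberculosis (UniProt P9WPC5 and UniProt P9WPC3). Protease assay of ClpP1P2, read by the AMC dye that it sets free. Tested at 50 µM. Direction is inferred from only a few compounds that gave an IC50; most scored high, so higher reads as stronger inhibition. Most other retested compounds had strongly negative values. About 69,000 compounds were tested under these conditions; 0.015% (about 10) showed 50% or more at least once.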
Leishmania in macrophages: 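Cell assay of Leishmania donovani living inside macrophages; the read-out is not stated. Tested at 30 µM. Higher reads as stronger inhibition (inferred: compounds with an IC50 in retests scored well above the rest). About 69,000 compounds were tested under these conditions; 1.5% (about 1,000) showed 50% or more at least once.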
MtTrpRS: 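Enzyme assay of tryptophanyl-tRNA synthetase; the read-out is not stated. Target: Tryptophan-tRNA ligase, Mycobacterium tuberculosis (UniProt P9WFT3). Tested at 10 µM. Direction is not recorded; retested compounds ran higher, which suggests that high means inhibition. About 65,000 compounds were tested under these conditions; 0.098% (about 64) showed 50% or more at least once.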

Each number is a percent effect as filed.
How 0% and 100% were set is not recorded. Most values in the screen are low, and negative values occur.
Compounds were drawn at random from those tested, without regard to their results.
Two or more numbers in one place are separate tests of the same structure; such repeats can differ widely.
A dash means the value is not listed here; it may have been measured.

Cc1ccc2c(n1)N(C)CCN(C(=O)NC(C)C)C2 gave Pks13 thioesterase: -15.63%; CoaBC: 8.143%; ClpP1P2: 3.907%; MtTrpRS: -5.045%.
CS(=O)(=O)N1Cc2cnn(CC3CC3)c2C(COCC2CC2)C1.O=C(O)C(F)(F)F (stereo not shown) gave Toxoplasma: 0.3718%; Leishmania in macrophages: 2.476%.
CCN(C(=O)c1ccc(-c2ccccc2)nc1C)C1CC(=O)NC1=O (stereo not shown) gave Pks13 thioesterase: -16.23%; Toxoplasma: 4.538%; ClpP1P2: -4.753%; Leishmania in macrophages: 3.774%; MtTrpRS: -2.374%.
CC(C)c1nn(C)c(N(C)C)c1CNCCC(=O)N(C)C gave Pks13 thioesterase: 29.73%; CoaBC: 7.846%; ClpP1P2: 2.497%; MtTrpRS: 1.072%.
CC(=O)Nc1ncc(S(=O)(=O)Nc2ccc(C)cc2)s1 gave Pks13 thioesterase: -22.02%; Toxoplasma: 70.91%; CoaBC: -7.852%; ClpP1P2: 8.68%; Leishmania in macrophages: -72.78%; MtTrpRS: 1.166%.
Cl.NCC(=O)N1CCCC1c1nccnc1Nc1ncccn1 (stereo not shown) gave Toxoplasma: 5.832%; Leishmania in macrophages: 7.471% & 1.347%.
Cc1ccc(-c2ccc(=O)n(CC(=O)Nc3nccs3)n2)cc1 gave Pks13 thioesterase: -17.72%; Toxoplasma: 17.23%; CoaBC: 1.976%; ClpP1P2: 0.4001%; Leishmania in macrophages: 3.474%; MtTrpRS: 1.696%.
O=C(O)C(F)(F)F.[H][C@]12CCN(Cc3ccc(CC)o3)C[C@@]1([H])OCCN(S(C)(=O)=O)C2 gave Toxoplasma: -6.992%; Leishmania in macrophages: -4.584% & 5.919%.
Cn1nc(C(=O)N2CCCC2)c(F)c1NC(=O)Cc1ccccc1 gave Pks13 thioesterase: -24.35%; Toxoplasma: 13.02%; CoaBC: 9.091%; ClpP1P2: 16.11%; Leishmania in macrophages: -0.9773%; MtTrpRS: 6.083%.
Cc1nccc(N2CCC(=O)N(CC3CC3)C(C(C)C)C2)n1 (stereo not shown) gave Pks13 thioesterase: -10.68%; Toxoplasma: 0%; CoaBC: 2.774%; ClpP1P2: 1.561%; Leishmania in macrophages: 2.019%; MtTrpRS: 0.942%.
CC(C)NC(=O)CC1COC2(CCN(Cc3ccsc3)CC2)C1.O=C(O)C(F)(F)F (stereo not shown) gave Toxoplasma: -23%; Leishmania in macrophages: -6.855%.
COCCN1CCOCC12CCN(c1nccs1)CC2 gave CoaBC: 5.172%; ClpP1P2: 1.966%; MtTrpRS: -4.988%.
[H][C@]12CCN(S(=O)(=O)c3ccc(C)cc3)[C@@]1([H])[C@@H](NC(=O)c1n[nH]cc1Cl)C2 gave Toxoplasma: 4.275%; Leishmania in macrophages: -2.812%.
Cc1nc(CN2CCN(C(=O)C(c3ccccc3C)N(C)C)CC2)no1 (stereo not shown) gave Pks13 thioesterase: -14%; Toxoplasma: -18.85%; CoaBC: 3.469%; ClpP1P2: -11.63%; Leishmania in macrophages: 27.48%; MtTrpRS: 0.7322%.
O=C(O)C(F)(F)F.[H][C@@]12CN(Cc3cccs3)C[C@]1([H])CN(C(=O)c1cccn1C)C2 gave Toxoplasma: -9.948%; Leishmania in macrophages: -5.03%.
COc1ccc(C[C@H]2CN(C3CCOCC3)CC[C@@H]2OCC2CC2)cc1.O=C(O)C(F)(F)F gave Toxoplasma: 0.5488%; Leishmania in macrophages: 2.15%.
CN1CCN(S(C)(=O)=O)c2ccc(F)cc21 gave Pks13 thioesterase: -16.78%; Toxoplasma: 5.464%; CoaBC: -17.11%; ClpP1P2: 1.004%; Leishmania in macrophages: 14.42%; MtTrpRS: -2.279%.

Repeated from the top, 2 entries:

| compound | Pks13 thioesterase | Toxoplasma | CoaBC | ClpP1P2 | Leishmania in macrophages | MtTrpRS |
|---|---|---|---|---|---|---|
| `Cc1ccc2c(n1)N(C)CCN(C(=O)NC(C)C)C2` | -15.63 | - | 8.143 | 3.907 | - | -5.045 |
| `CS(=O)(=O)N1Cc2cnn(CC3CC3)c2C(COCC2CC2)C1.O=C(O)C(F)(F)F` (stereo not shown) | - | 0.3718 | - | - | 2.476 | - |

From ChEMBL document CHEMBL3988442, “University of Dundee, Small-Polar-MMV Screening Library” (2021).